Data as given in PubChem BioAssay AID1259254 (NCATS, 2017)
Shown is an unselected part of about 59,000 reagents tested. In the full data, about 1,550 (2.6%) are marked active. 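G2 share is only a proxy for re-replication; each gene was hit by three separate siRNAs, and active genes were retested.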 Not all columns of the deposit are shown. Not stated in the record: the amount of reagent.

- Aim: 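Gene knock-downs that lead to re-replication, shown by excess G2 DNA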 (primary screen)
- Cells: human HCT116 colorectal cancer cells
- Knock-down reagent: single siRNA against human genes
- Timing: 3 days
- Measured: 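Imaged Hoechst DNA stain sorts each cell into a cycle phase by DNA amount; per plate, G2 fraction set to 0% for non-targeting and 100% for GMNN siRNA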
- Scale: G2 robust z-score: higher = more G2 cells, more excess DNA replication
- Hit rule: 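An siRNA counts as active if its G2 robust z-score lies at least 5 MADs above the screen median; here such calls match roughly 38% of GMNN control or more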

G2 robust z-score, by gene and reagent
FAM209A: SID160732650 -0.529 inactive; SID160760832 -1.14 inactive; SID160760833 0.356 inactive
IGF2BP3: SID160728943 -0.493 inactive; SID160728945 -0.78 inactive; SID160728946 1.08 inactive
HLA-DMB: SID160774982 -0.391 inactive; SID160774984 0.0928 inactive; SID160774985 0.505 inactive
TBX15: SID160717759 0.582 inactive; SID160717760 -0.521 inactive; SID160717762 0.534 inactive
POU3F4: SID160714681 -0.85 inactive; SID160714683 0.102 inactive; SID160731456 -0.154 inactive
EFCAB7: SID160752284 2.85 inactive; SID160752285 -0.732 inactive; SID160752286 -0.832 inactive
ACTA1: SID160777923 0.525 inactive; SID160777934 3.62 inactive; SID160777944 -0.302 inactive
IL11: SID160775761 -0.242 inactive; SID160775762 1.85 inactive; SID160775763 4.92 inactive
ZNF665: SID160749438 0.717 inactive; SID160749439 0.898 inactive; SID160749440 -0.323 inactive
GDPD5: SID160750778 0.324 inactive; SID160750781 -0.836 inactive; SID160750782 0.372 inactive
DUS3L: SID160745330 -0.536 inactive; SID160745331 -0.318 inactive; SID160745332 -0.355 inactive
KRT75: SID160721511 -0.0129 inactive; SID160721512 1.62 inactive; SID160732137 -0.731 inactive
WNT9A: SID160718865 -0.284 inactive; SID160718867 2.67 inactive; SID160734905 -0.0023 inactive
LLPH: SID160735089 -0.268 inactive; SID160752094 0.373 inactive; SID160752095 -0.992 inactive
LOC401220 (retired record): SID160767198 -1.36 inactive; SID160767199 0.797 inactive; SID160767200 -0.737 inactive
NUDT19: SID160766596 1.26 inactive; SID160766597 0.36 inactive; SID160766598 -0.352 inactive
GABARAPL1: SID160736813 4.12 inactive; SID160736814 1.94 inactive; SID160736815 -0.164 inactive
AP2B1: SID160749084 0.0225 inactive; SID160750146 -0.551 inactive; SID160751196 0.255 inactive

No new results follow: entries from further up.
G2 robust z-score, by gene and reagent
ACTA1: SID160777934 3.62 inactive; SID160777944 -0.302 inactive
IL11: SID160775761 -0.242 inactive; SID160775762 1.85 inactive; SID160775763 4.92 inactive
ZNF665: SID160749438 0.717 inactive; SID160749439 0.898 inactive; SID160749440 -0.323 inactive
GDPD5: SID160750778 0.324 inactive; SID160750781 -0.836 inactive; SID160750782 0.372 inactive

Next entries follow:
G2 robust z-score, by gene and reagent
ZNF668: SID160749377 6.05 active; SID160749378 -0.904 inactive; SID160749379 0.149 inactive
LINC02693: SID160764183 -1.23 inactive; SID160764184 -0.0138 inactive; SID160764185 -0.872 inactive
SPEM2: SID160760961 8.24 active; SID160760962 -0.315 inactive; SID160760963 -0.28 inactive
PTPRZ1: SID160715433 -0.819 inactive; SID160715435 -0.254 inactive; SID160715436 -0.726 inactive
ICE2: SID160749133 0.229 inactive; SID160749134 -0.71 inactive; SID160749135 -0.85 inactive
RPS10P15: SID160726424 -0.294 inactive; SID160726425 3.93 inactive; SID160726426 0.185 inactive
CASKIN1: SID160746179 1.26 inactive; SID160746180 0.865 inactive; SID160746181 2.69 inactive
PTPRK: SID160715410 -0.0231 inactive; SID160715411 4.25 inactive; SID160715413 -1.19 inactive
CREB5: SID160722567 -0.604 inactive; SID160722568 0.885 inactive; SID160722569 1.69 inactive; SID160725342 0.486 inactive; SID160767251 0.208 inactive; SID160767252 0.176 inactive
OOEP: SID160733411 1.66 inactive; SID160767950 1.31 inactive; SID160767951 -0.367 inactive
